Reference: article PMC6527865
Results are given in words; binding and its absence hold for the method and conditions named. In cells and extracts the contact can be indirect. Some results given as binding are weak or reduced against the parent protein; the word gives no strength.

Protein sequences, listed by entry. Tags and fused reporters are not part of them. Lines headed by an entry give the natural chain unless they say otherwise; changes in a name come on top.
UniProt P32908: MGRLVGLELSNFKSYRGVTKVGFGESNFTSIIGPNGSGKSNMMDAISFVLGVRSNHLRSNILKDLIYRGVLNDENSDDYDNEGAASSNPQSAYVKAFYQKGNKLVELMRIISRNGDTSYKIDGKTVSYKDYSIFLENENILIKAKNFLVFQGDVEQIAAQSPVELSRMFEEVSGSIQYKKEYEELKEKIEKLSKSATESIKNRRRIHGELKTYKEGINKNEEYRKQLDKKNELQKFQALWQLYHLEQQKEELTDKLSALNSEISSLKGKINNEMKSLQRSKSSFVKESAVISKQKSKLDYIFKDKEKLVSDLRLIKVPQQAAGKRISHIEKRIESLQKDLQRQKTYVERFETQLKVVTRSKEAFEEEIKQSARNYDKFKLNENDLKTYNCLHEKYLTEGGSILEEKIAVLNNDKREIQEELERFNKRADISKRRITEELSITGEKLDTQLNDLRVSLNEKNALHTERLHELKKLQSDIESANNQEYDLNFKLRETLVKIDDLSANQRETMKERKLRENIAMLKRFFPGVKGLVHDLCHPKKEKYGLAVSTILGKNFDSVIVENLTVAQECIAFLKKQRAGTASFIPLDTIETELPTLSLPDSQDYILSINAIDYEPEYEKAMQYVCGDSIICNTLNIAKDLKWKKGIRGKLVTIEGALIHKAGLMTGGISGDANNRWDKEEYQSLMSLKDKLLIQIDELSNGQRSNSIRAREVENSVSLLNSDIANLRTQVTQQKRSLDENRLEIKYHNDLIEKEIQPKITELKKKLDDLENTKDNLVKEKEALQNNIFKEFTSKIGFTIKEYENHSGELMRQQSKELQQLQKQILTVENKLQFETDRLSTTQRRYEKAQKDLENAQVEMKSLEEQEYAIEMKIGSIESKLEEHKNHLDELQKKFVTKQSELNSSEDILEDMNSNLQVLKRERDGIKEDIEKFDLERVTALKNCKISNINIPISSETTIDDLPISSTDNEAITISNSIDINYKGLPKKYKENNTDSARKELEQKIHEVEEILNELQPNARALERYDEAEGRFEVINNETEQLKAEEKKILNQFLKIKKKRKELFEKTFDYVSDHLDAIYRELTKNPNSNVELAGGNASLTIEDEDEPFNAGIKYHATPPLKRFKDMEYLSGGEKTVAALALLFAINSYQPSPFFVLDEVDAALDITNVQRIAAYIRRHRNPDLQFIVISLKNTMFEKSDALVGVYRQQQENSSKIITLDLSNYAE
UniProt P47037: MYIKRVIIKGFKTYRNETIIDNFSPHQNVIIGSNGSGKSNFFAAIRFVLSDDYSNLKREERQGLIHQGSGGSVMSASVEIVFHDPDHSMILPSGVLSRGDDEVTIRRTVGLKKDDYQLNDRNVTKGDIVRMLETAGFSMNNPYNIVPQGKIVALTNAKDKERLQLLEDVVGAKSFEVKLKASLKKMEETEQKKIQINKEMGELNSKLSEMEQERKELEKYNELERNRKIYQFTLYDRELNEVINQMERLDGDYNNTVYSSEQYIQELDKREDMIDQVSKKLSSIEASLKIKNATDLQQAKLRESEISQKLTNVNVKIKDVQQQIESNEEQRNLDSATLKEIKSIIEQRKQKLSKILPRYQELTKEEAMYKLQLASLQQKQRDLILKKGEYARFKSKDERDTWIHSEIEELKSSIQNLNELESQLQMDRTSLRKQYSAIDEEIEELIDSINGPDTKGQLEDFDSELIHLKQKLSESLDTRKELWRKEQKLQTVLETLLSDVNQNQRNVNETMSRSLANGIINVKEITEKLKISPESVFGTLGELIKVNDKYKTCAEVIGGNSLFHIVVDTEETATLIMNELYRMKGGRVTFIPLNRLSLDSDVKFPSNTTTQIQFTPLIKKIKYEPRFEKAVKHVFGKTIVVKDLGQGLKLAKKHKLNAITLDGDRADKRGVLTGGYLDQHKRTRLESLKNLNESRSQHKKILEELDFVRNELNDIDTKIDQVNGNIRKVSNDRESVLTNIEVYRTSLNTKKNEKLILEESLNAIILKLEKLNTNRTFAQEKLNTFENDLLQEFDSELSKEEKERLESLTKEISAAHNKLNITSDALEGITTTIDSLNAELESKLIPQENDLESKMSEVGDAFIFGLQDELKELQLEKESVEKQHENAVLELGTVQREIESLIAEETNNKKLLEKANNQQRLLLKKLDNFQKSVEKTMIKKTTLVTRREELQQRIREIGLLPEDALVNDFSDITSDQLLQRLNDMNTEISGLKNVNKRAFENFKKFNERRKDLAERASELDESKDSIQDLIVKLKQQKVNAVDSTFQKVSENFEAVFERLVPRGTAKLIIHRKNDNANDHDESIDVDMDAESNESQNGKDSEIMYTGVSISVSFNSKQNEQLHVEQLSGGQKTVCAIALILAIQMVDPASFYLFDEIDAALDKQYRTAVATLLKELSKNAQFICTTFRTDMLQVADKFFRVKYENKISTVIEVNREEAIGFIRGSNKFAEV
UniProt Q12158: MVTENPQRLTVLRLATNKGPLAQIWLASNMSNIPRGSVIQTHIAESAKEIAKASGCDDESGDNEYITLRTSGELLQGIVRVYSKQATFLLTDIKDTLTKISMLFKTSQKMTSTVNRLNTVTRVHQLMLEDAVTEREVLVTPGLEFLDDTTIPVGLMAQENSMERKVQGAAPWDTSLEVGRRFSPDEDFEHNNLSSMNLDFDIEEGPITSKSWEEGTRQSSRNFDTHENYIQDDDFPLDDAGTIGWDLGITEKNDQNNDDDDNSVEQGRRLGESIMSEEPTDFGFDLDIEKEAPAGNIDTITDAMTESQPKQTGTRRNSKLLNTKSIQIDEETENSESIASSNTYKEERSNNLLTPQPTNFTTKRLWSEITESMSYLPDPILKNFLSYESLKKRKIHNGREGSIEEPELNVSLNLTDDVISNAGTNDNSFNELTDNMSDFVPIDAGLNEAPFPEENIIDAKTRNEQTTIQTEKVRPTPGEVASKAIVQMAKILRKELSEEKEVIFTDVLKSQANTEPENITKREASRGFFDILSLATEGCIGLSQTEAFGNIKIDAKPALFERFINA
UniProt P40541: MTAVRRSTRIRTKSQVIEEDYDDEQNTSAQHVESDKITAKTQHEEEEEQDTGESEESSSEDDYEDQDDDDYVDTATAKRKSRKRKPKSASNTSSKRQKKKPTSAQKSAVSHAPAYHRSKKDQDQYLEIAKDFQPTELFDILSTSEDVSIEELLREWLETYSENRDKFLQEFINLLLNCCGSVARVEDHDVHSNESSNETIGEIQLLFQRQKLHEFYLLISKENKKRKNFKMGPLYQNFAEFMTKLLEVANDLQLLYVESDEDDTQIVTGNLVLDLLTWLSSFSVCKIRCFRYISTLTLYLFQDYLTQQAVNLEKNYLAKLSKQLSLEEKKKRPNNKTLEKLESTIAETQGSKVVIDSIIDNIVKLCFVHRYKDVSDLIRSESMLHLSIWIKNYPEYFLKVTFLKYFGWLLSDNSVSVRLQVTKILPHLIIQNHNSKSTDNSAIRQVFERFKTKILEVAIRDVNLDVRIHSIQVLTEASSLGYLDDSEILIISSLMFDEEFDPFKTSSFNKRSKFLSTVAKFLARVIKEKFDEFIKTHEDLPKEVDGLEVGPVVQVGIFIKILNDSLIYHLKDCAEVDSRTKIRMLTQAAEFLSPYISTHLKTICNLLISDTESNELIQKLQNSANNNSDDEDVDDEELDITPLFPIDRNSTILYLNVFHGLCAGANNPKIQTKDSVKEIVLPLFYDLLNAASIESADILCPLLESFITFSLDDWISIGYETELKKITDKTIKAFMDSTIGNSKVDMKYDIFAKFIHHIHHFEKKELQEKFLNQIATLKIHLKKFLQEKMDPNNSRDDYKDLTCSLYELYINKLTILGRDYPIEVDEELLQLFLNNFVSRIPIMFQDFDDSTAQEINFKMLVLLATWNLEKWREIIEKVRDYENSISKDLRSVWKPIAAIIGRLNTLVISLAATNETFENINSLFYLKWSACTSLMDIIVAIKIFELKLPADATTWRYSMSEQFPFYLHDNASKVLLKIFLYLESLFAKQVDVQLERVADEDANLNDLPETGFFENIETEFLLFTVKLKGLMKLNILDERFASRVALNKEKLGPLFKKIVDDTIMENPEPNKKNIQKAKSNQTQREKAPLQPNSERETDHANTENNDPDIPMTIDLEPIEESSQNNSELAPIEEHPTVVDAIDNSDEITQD
UniProt Q04002: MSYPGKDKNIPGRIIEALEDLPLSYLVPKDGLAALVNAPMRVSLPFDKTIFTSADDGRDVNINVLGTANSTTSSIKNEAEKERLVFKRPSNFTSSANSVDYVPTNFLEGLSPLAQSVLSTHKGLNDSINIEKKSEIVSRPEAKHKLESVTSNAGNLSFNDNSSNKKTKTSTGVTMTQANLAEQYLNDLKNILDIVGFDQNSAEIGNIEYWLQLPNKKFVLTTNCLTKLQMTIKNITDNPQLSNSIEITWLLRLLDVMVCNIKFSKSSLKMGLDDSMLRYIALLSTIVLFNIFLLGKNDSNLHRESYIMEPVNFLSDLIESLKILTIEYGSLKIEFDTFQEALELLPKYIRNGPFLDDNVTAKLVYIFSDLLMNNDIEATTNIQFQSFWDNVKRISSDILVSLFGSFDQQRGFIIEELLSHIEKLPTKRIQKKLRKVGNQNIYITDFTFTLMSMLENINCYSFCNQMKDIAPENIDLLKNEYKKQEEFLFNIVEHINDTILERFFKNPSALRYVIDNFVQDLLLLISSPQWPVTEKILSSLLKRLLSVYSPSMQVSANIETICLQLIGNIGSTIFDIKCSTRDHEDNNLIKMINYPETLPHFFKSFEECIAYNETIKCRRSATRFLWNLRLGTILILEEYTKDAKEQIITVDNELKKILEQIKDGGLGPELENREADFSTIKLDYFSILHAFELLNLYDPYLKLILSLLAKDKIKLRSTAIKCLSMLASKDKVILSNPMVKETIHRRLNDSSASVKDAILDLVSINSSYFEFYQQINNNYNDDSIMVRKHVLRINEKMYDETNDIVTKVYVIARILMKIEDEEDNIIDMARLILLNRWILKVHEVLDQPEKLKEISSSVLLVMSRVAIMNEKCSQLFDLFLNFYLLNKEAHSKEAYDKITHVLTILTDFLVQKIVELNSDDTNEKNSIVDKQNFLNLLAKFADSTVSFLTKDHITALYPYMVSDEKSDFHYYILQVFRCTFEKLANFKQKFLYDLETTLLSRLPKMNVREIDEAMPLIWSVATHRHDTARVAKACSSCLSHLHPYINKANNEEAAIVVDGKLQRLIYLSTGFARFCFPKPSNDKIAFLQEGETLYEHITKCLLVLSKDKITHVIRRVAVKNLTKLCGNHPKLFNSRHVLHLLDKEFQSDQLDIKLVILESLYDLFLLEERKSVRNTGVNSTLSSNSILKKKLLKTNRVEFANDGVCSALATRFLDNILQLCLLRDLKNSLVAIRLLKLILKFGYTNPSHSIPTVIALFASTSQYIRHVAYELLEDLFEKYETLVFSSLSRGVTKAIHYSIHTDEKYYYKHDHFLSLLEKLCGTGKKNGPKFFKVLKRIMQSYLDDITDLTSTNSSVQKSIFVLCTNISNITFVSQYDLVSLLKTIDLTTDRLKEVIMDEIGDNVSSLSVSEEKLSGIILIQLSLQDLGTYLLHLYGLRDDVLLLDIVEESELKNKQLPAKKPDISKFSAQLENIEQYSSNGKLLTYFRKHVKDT

Target: cohesin in budding yeast cell extract (S. cerevisiae) (UniProt P32908+P47037+Q12158+P40541)
Assay: co-IP; interaction of cohesin and the cohesin loader in cell extracts, in the presence or absence of Sth1 (Figure S4C); bait and blots not given

binding: binds
Substance: cohesin loader in budding yeast cell extract (from UniProt Q04002 1-1493; P40090 1-624) (complex)
